The record followed here is PubChem BioAssay AID1745846 (National Center for Advancing Translational Sciences (NCATS), 2022).

The whole screen tested about 1,400 compounds, of which about 30 (2%) were called active. Another 15% or so got no clear call; they are omitted. The call rests on the fitted dose curve; in most records, active means well fitted inhibition curve with a large enough effect; inconclusive means small, poorly fitted or top-dose-only effect; inactive means flat fitted curve, though single readings scatter. The list shows a part of the results.
On the % scale 0 is the no-effect control and ±100 the full control effect; potency means the concentration at half of the fitted maximal effect.

The test in a line: Firefly Luciferase Counterscreen for Inhibitors of ATXN expression. As to conditions: luminescence; series mostly up to 57.5 µM; activity change, negative = inhibition: at the top concentration. The text has this:
University of Utah School of Medicine, Salt Lake City, Utah
Spinocerebellar ataxia type 2 (SCA2) is a multisystem neurodegenerative disease caused by a dominantly acting mutation leading to expansion of a polyQ domain in the ataxin-2 protein (ATXN2). SCA2 patients develop progressive ataxia and later lose function in other neuronal systems. Prominent parkinsonian signs develop in some patients. Like many neurodegenerative disorders, no symptomatic or disease-modifying treatments are known.
The primary objective of the proposed research is to identify compounds inhibiting ATXN2 expression and to test them for efficacy in SCA2 mouse models. We have developed a cell-based assay paired with an in vivo mouse model using identical luciferase expression constructs. This approach takes advantage of an ATXN2-luciferase transgene, with the luciferase gene flanked by the upstream and downstream portions of the ATXN2 gene. Here we describe a 5-7 dose quantitative high thoroughput screen (qHTS) for compounds lowering ATXN2 expression. We screened the NIH Molecular Libraries Small Molecule Repository (MLSMR) and NCGC's mechanistically annotated (MIPE) and drug repurposing (NPC) collections of compounds for lowering expression of an ATXN2-luciferase reporter in HEK-293 cells. The assay is a multiplexed cell viability assay to ensure target reduction in the absence of cytotoxicity. Secondary qHTS assays included a CMV-luciferase reporter expressed in HEK-293 cells as well as a biochemical assay using recombinant luciferase to detect inhibitors of the reporter enzyme. Compounds that inhibit ATXN2 expression but is not cytotoxic were selected for confirmatory and secondary screens.
PROTOCOL TABLE (as described by Inglese J, Shamu CE and Guy RK. 2007)
SEQUENCE No. (e.g., 1, 2, 3, etc.); […] (e.g., Cells, Incubation, Reagent, etc.); VALUE; DESCRIPTION.
2; Compounds; 23 nL; Kalypsis pintool (Wako USA) equipped with a 1536-well pin head.
3; Enzyme; 1 uL; recombinant firefly luciferase (prepared in 50 mM Tris HCl pH7.5, 10 mM MgCl2, 0.05% BSA, 0.01% Tween20) at final concentration of 10 nM. Wells containing buffer only were used as control (set as 100% inhibition when normalizing data).
4; Incubation; 10 min; room temperature.
5; Detection; Luminescence; Viewlux plate reader (PerkinElmer).
NOTES (numbers refer to Sequence numbers above)
1. Luciferase substrate is added to 1536 well, Greiner white assay plate. Evaporation was prevented by covering assay plates with metal lids containing holes to allow gas diffusion.
2. Compounds were added in a dose response manner with the final concentrations of 57, 11.4, 2.28, 0.46, 0.091, 0.018, 0.0037 uM. Vehicle-only plates, with DMSO being pin-transferred to columns 5-48, were inserted uniformly at the beginning and the end of each library to monitor and record any shifts in assay performance.
3. Recombinant firefly luciferase (10 nM final concentration) is added to the assay plate.
5. End-point luminescence is then measured on the Viewlux (PerkinElmer) imager equipped with a clear emission filter using a 2 sec exposure.
Inglese J, Shamu CE and Guy RK, Reporting data from high throughput screening of small molecule libraries, Nature Chemical Biology, 2007, 3(8): 438-441. doi.org/10.1038/nchembio0807-438.
In the case of `CC(C)Nc1nc(-c2ccccn2)nc(-c2ccccc2)c1C#N`, the “activity change, negative = inhibition” value was inactive: 1.8%.
In the case of `Cc1cc(N2CCN(Cc3nc(-c4ccc(Cl)cc4)oc3C)CC2)cc(C)n1`, the “activity change, negative = inhibition” value was inactive: 0.946%.
On to `COc1ccc(C(=O)NNC(=S)NC(=O)c2ccccc2)cc1`, for which the “activity change, negative = inhibition” value is inactive: -14.8%.
On the same count and under the same terms, as for `COc1cc(/C=C/c2ccc(/C=C/c3cc(OC)c(OC)c(OC)c3)cc2)cc(OC)c1OC`, the figure is inactive: 2.23%; as for `O=C(CSc1n[nH]c(-c2ccccn2)n1)Nc1ccccc1`, inactive: -13.1%; as for `CN(c1ccccc1)S(=O)(=O)c1ccc(C(=O)Nc2nnc(-c3ccc(F)cc3)o2)cc1`, inactive: -19%.
`COc1ccc(C2CC(c3ccccc3C(F)(F)F)=NN2c2ccc(S(N)(=O)=O)cc2)cc1` (stereo not given): the “activity change, negative = inhibition” value was inactive: -0.388%.
Regarding `O=C(CNc1cccc(C(F)(F)F)c1)Nc1cccc(S(=O)(=O)N2CCCC2)c1`, the “activity change, negative = inhibition” value is inactive: -7.16%.
As to `CC(=O)Oc1ccccc1Cn1c(C)c(C(=O)NCc2ccc(Cl)c(Cl)c2)sc1=O`, the “activity change, negative = inhibition” value is inactive: 0.728%.
For the compound `O=C(COc1ccc(Br)cc1CO)Nc1ccc(S(=O)(=O)N2CCCCC2)cc1`, the “activity change, negative = inhibition” value was inactive: -0.257%.
For `CN1CCC(N(C)S(=O)(=O)c2ccc(NC(=O)COc3ccc(Br)cc3Cl)cc2)CC1`, the “activity change, negative = inhibition” value was inactive: -14.6%.
Take `CC(C)N(C(=O)N1CCN(c2ccnc3cc(Cl)ccc23)CC1)C(C)C`: the “activity change, negative = inhibition” value is inactive: 1.43%.
The same measure, in the same setting: as for `N#Cc1c(NCCN)nc(-c2ccco2)c2c1CCCC2`, the figure is inactive: 0.59%; as for `O=C(CCCN1CCc2[nH]c3ccc(F)cc3c2C1)c1ccc(F)cc1`, inactive: 1.89%; as for `COc1ccc(/C=C2\CN(Cc3ccccc3)C/C(=C\c3ccc(OC)c(O)c3)C2=O)cc1O`, inactive: -1.84%.
For the compound `CCn1c(/C=C/c2ccc([N+](=O)[O-])o2)nc2ccccc2c1=O`, the “activity change, negative = inhibition” value was inactive: 1.83%.
Turning to `Cc1cccc(N=C2NN=C(c3c(C)[nH]c4ccccc34)CS2)c1`, the “activity change, negative = inhibition” value was inactive: -0.128%.
On to `CCc1ccc(CNC(=O)c2cc3c(C)nc4ccccc4c3o2)cc1`, for which the “activity change, negative = inhibition” value is inactive: -6.09%.
Consider `Clc1ccc2c(NCc3ccccc3)ccnc2c1`, for which the “activity change, negative = inhibition” value was inactive: -5.63%.
With `O=c1c(Cc2ccccc2)c(O)nc2n1CCS2`, the “activity change, negative = inhibition” value is inactive: -5.28%.
Same read-out and setting: as for `CCOC(=O)N1CCC(c2cc(=O)n3[nH]c(C)c(-c4ccc(F)cc4)c3n2)CC1`, the figure is inactive: -8.39%.
As for `COc1ccccc1OCCN1CSC(=S)N(C)C1`, the “activity change, negative = inhibition” value was inactive: -3.93%.
In the case of `CN(C)CCCNc1nc2cc(-c3cccc(Cl)c3)sc2c(=O)n1C`, the “activity change, negative = inhibition” value was inactive: 0.253%.
Take `CC(C)(C)N(Cc1ccc2c(c1)OCO2)C(=O)/C=C\S(=O)c1ccccc1` (stereo not given): the “activity change, negative = inhibition” value is inactive: -1.1%.
On to `C/C(=N\NC(=O)CN(c1ccccc1)S(C)(=O)=O)c1ccccc1O`, for which the “activity change, negative = inhibition” value is inactive: -2.27%.
Regarding `Cc1ccc(C)c(CN2CCC(CNC(=O)Nc3ccc(C)c(C)c3)CC2)c1`, the “activity change, negative = inhibition” value was inactive: 3.77%.
Turning to `N#Cc1c(Oc2ccc3ccccc3c2)sc(C(=O)c2ccccc2)c1N`, the “activity change, negative = inhibition” value was inactive: 4.85%.
Regarding `COc1cc(-c2ccc3sc(-c4ccsc4)c(C#CCO)c3c2)cc(OC)c1OC`, the “activity change, negative = inhibition” value was inactive: 0.724%.
In the case of `Cc1ccc2[nH]c(=O)c(CN(CCCN(C)C)C(=O)Nc3cccc(Cl)c3)cc2c1`, the “activity change, negative = inhibition” value is inactive: -2.94%.
For the compound `Oc1c(C(Nc2cccc(C(F)(F)F)c2)c2cccnc2)ccc2cccnc12` (stereo not given), the “activity change, negative = inhibition” value was inactive: -4.6%.
For `O=C(Nc1ccc(F)cc1)c1sccc1SCc1cccc(C(F)(F)F)c1`, the “activity change, negative = inhibition” value is inactive: -2.62%.
Take `CCCc1nc(C)cc(N2CCN(c3ccccc3)CC2)n1`: the “activity change, negative = inhibition” value was inactive: 4.02%.
`CCCNC(=O)c1ccc2c(=O)c(O)c(-c3cccc(Br)c3)[nH]c2c1`: the “activity change, negative = inhibition” value is inactive: -1.91%.
Still for that read-out and setting: as for `Nc1c(C(=O)NCCN2CCOCC2)c2nc3ccccc3nc2n1CCc1ccccc1F`, the figure is inactive: 0.75%; as for `COc1cccc(CC2(CO)CCCN(Cc3[nH]c4ccc(C)cc4c3C)C2)c1` (stereo not given), inactive: -1.09%.
Same read-out and setting: the figure for `NS(=O)(=O)c1ccc(N2N=C(c3ccccc3)CC2c2cccc(Cl)c2)cc1` (stereo not given) is inactive: -7.87%.
With `CS(=O)(=O)Nc1cccc(NC(=O)c2cccc3c(-c4cccc(C(N)=O)c4)coc23)c1`, the Potency is active: 14.1 µM.
As to `COc1ccc2nc(C)cc(SCC(=O)N/N=C/c3ccc(O)cc3O)c2c1`, the “activity change, negative = inhibition” value was inactive: 0.544%.
Still for that read-out and setting: the figure for `Cn1cccc1/C=N/N1CCN(Cc2ccccc2Cl)CC1` is inactive: -4.65%; for `CCN1CCN(Cc2ccc(NC(=O)c3ccc(C)c(NC(=O)c4nccnc4N)c3)cc2C(F)(F)F)CC1` it is inactive: -14.6%.
For `N#CC1=C(N)N2C(=C(C#N)C1c1cccc(Br)c1)Nc1ccccc12` (stereo not given), the “activity change, negative = inhibition” value is inactive: -1.52%.
With `O=C(Nc1cccc(C(F)(F)F)c1)N1CCC(c2nc(-c3ccc(F)cc3)no2)CC1`, the “activity change, negative = inhibition” value is inactive: -1.53%.
For `CCCC(=O)NC(c1ccc(OC)cc1)c1c(O)ccc2ccccc12` (stereo not given), the “activity change, negative = inhibition” value was inactive: -0.474%.
`CN(C)c1ccc2c(c1)OC(N)=C(C#N)C2c1cccc(F)c1` (stereo not given): the “activity change, negative = inhibition” value was inactive: -5.56%.
Regarding `CCC(O)(CC)C(=O)N/N=C/c1cc(Br)cc(Br)c1O`, the “activity change, negative = inhibition” value was inactive: -19.5%.
Turning to `c1ccc(-c2sc3ccccc3c2-c2ccc(OCCN3CCCC3)cc2)cc1`, the “activity change, negative = inhibition” value is inactive: 0.532%.
With `O=c1[nH]c(=O)n(C2C[C@H](O)[C@@H](CO)O2)cc1C(F)(F)F` (stereo not given in full), the “activity change, negative = inhibition” value was inactive: -1.72%.
Same read-out and setting: as for `CC(=O)c1ccc(NC(=O)COC(=O)c2c3c(nc4ccccc24)/C(=C\c2cccs2)CCC3)cc1`, the figure is inactive: -6.28%.
Consider `CN(C)CCCN(C(=O)c1ccco1)c1nc2cc3c(cc2s1)OCO3`, for which the “activity change, negative = inhibition” value was inactive: -7.33%.
Regarding `O=C(CNc1ccc(F)cc1)N/N=C/c1c(O)ccc2ccccc12`, the “activity change, negative = inhibition” value was inactive: -9.02%.
